# Test results as given in PMC8406200, “SAMase of Bacteriophage T3 Inactivates Escherichia coli’s Methionine S-Adenosyltransferase by Forming Heteropolymers” (mBio, 2021).
# Results are given in words; binding and its absence hold for the method and conditions named. In cells and extracts the contact can be indirect. Some binding calls cover weakened binding; strength is not graded here. Sequences can lack the tags named with a protein.
# T1: S-Adenosylmethionine lyase (SAMase) of bacteriophage T3, C-terminal His-tagged (bacteriophage T3) (UniProt P07693)
# T1 sequence: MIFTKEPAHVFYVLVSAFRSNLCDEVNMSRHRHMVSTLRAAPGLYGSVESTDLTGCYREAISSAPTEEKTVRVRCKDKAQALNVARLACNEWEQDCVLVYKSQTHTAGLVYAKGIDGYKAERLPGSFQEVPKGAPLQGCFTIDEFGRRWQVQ
# Biological target: T1, S-Adenosylmethionine lyase (SAMase) of bacteriophage T3, C-terminal His-tagged (bacteriophage T3)
# Test: pull-down; 4 μM 6×His-tagged SAMase mixed with E. coli cell lysate, 30 min at room temperature, Ni-NTA bead spin columns, 50 mM NaH2PO4 pH 8, 300 mM NaCl; Western blot with anti-E. coli MAT polyclonal antibodies; only the target purified
binder,measurement,value
"E. coli methionine S-adenosyltransferase (MAT), recombinant, C-terminal His6 (enzyme, E. coli MG1655, UniProt P0A817 1-384, looked up, Homotetramer (dimer of dimers); also called EcMAT; E. coli MAT; source: E. coli BL21(DE3) (pET24a), purified (Ni-NTA, SEC)) MAKHLFTSESVSEGHPDKIADQISDAVLDAILEQDPKARVACETYVKTGMVLVGGEITTSAWVDIEEITRNTVREIGYVHSDMGFDANSCAVLSAIGKQSPDINQGVDRADPLEQGAGDQGLMFGYATNETDVLMPAPITYAHRLVQRQAEVRKNGTLPWLRPDAKSQVTFQYDDGKIVGIDAVVLSTQHSEEIDQKSLQEAVMEEIIKPILPAEWLTSATKFFINPTGRFVIGGPMGDCGLTGRKIIVDTYGGMARHGGGAFSGKDPSKVDRSAAYAARYVAKNIVAAGLADRCEIQVSYAIGVAEPTSIMVETFGTEKVPSEQLTLLVREFFDLRPYGLIQMLDLLHPIYKETAAYGHFGREHFPWEKTDKAQLLRDAAGLK",binding,binds
